Out of some 300,000 compounds screened, about 3,700 (1.2%) were called active. Inconclusive results, whose numbers are uncertain, are shown with a selection of clear calls. Calls follow the shape of the full dose curve; tested in HEK293 cells. Where the call is inconclusive, the potency comes from a doubtful curve fit.
Experiment: qHTS for Inhibitors of binding or entry into cells for Lassa Virus; also: nearly all actives have a fitted effect of over 50% in size
Details: Lassa virus pseudotype entry inhibition, cell reporter; series mostly up to 37.9 µM
Potency is read from the fitted curve at half-maximal effect.

Structure (SMILES)	Potency
Cc1cc(C(=O)CSc2nc(N)cc(N)n2)c(C)n1CCc1ccc(F)cc1	inconclusive: 8.91 µM [inhibitor, partial curve, poor fit]
COc1cc(NC(=O)c2ccc(S(=O)(=O)N(C)c3ccccc3OC)cc2)cc(OC)c1	inconclusive: 35.5 µM [inhibitor, single point]
O=c1c2cnn(-c3ccc(F)cc3)c2ncn1Cc1ccccc1	inconclusive: 1.41 µM [inhibitor, full curve]
Cc1nn2c(NCc3ccccn3)c3c(nc2c1-c1ccccc1)CCC3	inconclusive: 22.4 µM [inhibitor, single point]
COc1ccc(C2CC(C)=C(C#N)S(=O)(=O)C2C#N)cc1 (stereo not given)	inconclusive: 1 µM [inhibitor, full curve, poor fit]
CCc1cc(C(=O)Nc2c(C)nn(Cc3ccc(C)cc3)c2C)no1	inactive
COc1cc(C(=O)NNC(=S)NC(=O)c2ccccc2C)cc(OC)c1OC	inconclusive: 11.2 µM [inhibitor, partial curve, poor fit]
O=C(CSc1nc2ccccc2c2nc(-c3ccccc3)nn12)Nc1ccc(Br)cc1	inactive
CC(C)(C)c1cc(C(C)(C)C)c2oc(=O)c(-c3nc4ccccc4[nH]3)cc2c1	inconclusive: 5.62 µM [activator, single point]
CCc1nnc(NC(=O)CN2CCN(Cc3cccc(Cl)c3)CC2)s1	inconclusive: 1 µM [activator, partial curve, poor fit]
CC(=O)c1ccc(OCCCC(=O)OCc2nnc(-c3ccc(Cl)cc3)o2)cc1	inactive
COC(=O)C1CCN(S(=O)(=O)c2cc3c4c(c2)C(C)C(=O)N4CCC3)CC1 (stereo not given)	inactive
O=[N+]([O-])c1ccccc1OCCCn1cnc2ccccc21	inactive
COc1ccc(N=C2S/C(=C\c3ccc(OC(C)C(=O)O)c(OC)c3)C(=O)N2CCc2c[nH]c3ccccc23)cc1 (stereo not given)	inconclusive: 12.6 µM [inhibitor, partial curve, poor fit]
CN(c1cccc(NC(=O)CN(c2ccc(C34CC5CC(CC(C5)C3)C4)cc2)S(C)(=O)=O)c1)S(C)(=O)=O	active: 7.3 µM
Fc1cccc(-n2ncc(-c3nnnn3-c3ccccc3)c2C(F)(F)F)c1	inconclusive: 20.6 µM [inhibitor, single point]
COc1ccc(OC)c(/C=C/C(=O)OCC(=O)Nc2ccc3c(c2)OCCO3)c1	inconclusive: 16.4 µM [inhibitor, single point]
S=C(NCc1ccccc1)NC1CCSc2ccccc21 (stereo not given)	inconclusive: 10 µM [inhibitor, partial curve, poor fit]
COc1cc(SC)ccc1C(=O)N1CCN(Cc2ccccc2)CC1	inconclusive: 29.1 µM [inhibitor, single point]
CC(C(=O)O)c1n[nH]c(=O)c2ccccc12 (stereo not given)	inactive
COCCn1c(-c2ccccc2)nc2oc3ccccc3c(=O)c2c1=O	inactive
c1coc(CNc2nc(N3CCCCC3)nc3ccccc23)c1	inconclusive: 35.5 µM [inhibitor, single point]
CCCCOc1ccc(C(=O)NCCC(=O)NCCCC(=O)OCC)cc1	inactive
CC(=O)c1sc(N/N=C\c2cccc(Br)c2)nc1C	active: 14.1 µM

Structure (SMILES)	Potency
COc1ccc(Oc2nc3c(c(=O)n(C)c(=O)n3C)n2Cc2cccc(OC)c2)cc1	inconclusive: 5.62 µM [inhibitor, full curve, poor fit]
CC(C)(C)NS(=O)(=O)c1ccc2nc(NC(=O)c3cccnc3)sc2c1	inactive
COc1cc(C2NC(=O)NC(C)=C2C(=O)Nc2cc(C)cc(C)c2)ccc1O (stereo not given)	inactive
CCCCn1c(-c2nonc2N)nc2ccccc21	inactive
Cc1ccc2c(c1)[nH]c1c(N3CCN(Cc4ccccc4)CC3)ncnc12	active: 20.6 µM
CC1Cc2ccccc2N1C(=O)CSc1nc2ccccc2s1 (stereo not given)	inactive
CC(C)c1nc(SCC(=O)N2CCCCCC2)c2c(=O)n(C)c(=O)n(C)c2n1	inconclusive: 0.794 µM [inhibitor, full curve, poor fit]
O=C(Cc1c(F)c(F)c(F)c(F)c1F)Nc1nc(-c2ccccc2)cs1	inconclusive: 17.8 µM [inhibitor, partial curve, poor fit]
CCOCCCNC(=O)c1ccc2c(c1)N=C(CC)c1cc(Br)ccc1S2	inconclusive: 0.366 µM [inhibitor, full curve]
COCC(C)n1c(C)cc(C(=O)CSc2nnc(-c3ccco3)o2)c1C (stereo not given)	inactive
CN1CCc2c(sc(/N=C/c3cccs3)c2C(N)=O)C1	inactive
Cc1ccc([C@H]2C[C@H](O)[C@@H](n3cc(C4CC4)nn3)CN2C(=O)c2cccs2)cc1	inconclusive: 22.3 µM [inhibitor, single point]
Cc1ccccc1CSCCNC(=O)CN(c1ccc2c(c1)OCO2)S(C)(=O)=O	inconclusive: 20.6 µM [inhibitor, partial curve, poor fit]
CCCOc1ccc(N2C(=O)CC(N(CCc3ccc(OC)c(OC)c3)C(=S)Nc3ccccc3)C2=O)cc1 (stereo not given)	inconclusive: 20 µM [inhibitor, single point]
O=C(NCC1CCCO1)c1ccc(COCC(F)(F)C(F)F)cc1 (stereo not given)	inactive
N#CC1=C(N)Oc2c(O)cc3ccccc3c2C1c1ccsc1 (stereo not given)	inconclusive: 12.6 µM [inhibitor, partial curve, poor fit]
CC(C)c1ccc(/C=N/NC(=O)c2cccc(S(=O)(=O)N3CCOCC3)c2)cc1	inactive
CCOC(=O)c1sc2nccc(N(C)C)c2c1N=CN(C)C	inactive
CC1Sc2ccc(S(=O)(=O)N3CCC(C(=O)NCc4ccc(Cl)cc4)CC3)cc2NC1=O (stereo not given)	inactive
COc1ccc(-n2c(O)c(C=NCc3ccc4c(c3)OCO4)c(=O)[nH]c2=O)cc1	inactive
CN1CC(c2ccccc2)C2(SC(=S)N(Cc3ccco3)C2=O)C12C(=O)Nc1ccccc12 (stereo not given)	inconclusive: 29.1 µM [inhibitor, single point]
COC(=O)c1cc(OC)c(OC)cc1NC(=O)CSc1ccccc1	inconclusive: 7.08 µM [inhibitor, partial curve, poor fit]
CCN(CC)C(=O)Oc1ccc2ccccc2c1Cl	inconclusive: 7.31 µM [inhibitor, partial curve, poor fit]
O=C(NCCCNC(=O)c1ccccn1)c1cccc(F)c1	inactive

6 of these compounds in another layout.
Structure (SMILES),Potency
O=C(CSc1nc2ccccc2c2nc(-c3ccccc3)nn12)Nc1ccc(Br)cc1,inactive
CC(C)(C)c1cc(C(C)(C)C)c2oc(=O)c(-c3nc4ccccc4[nH]3)cc2c1,"inconclusive: 5.62 µM [activator, single point]"
CCc1nnc(NC(=O)CN2CCN(Cc3cccc(Cl)c3)CC2)s1,"inconclusive: 1 µM [activator, partial curve, poor fit]"
CC(=O)c1ccc(OCCCC(=O)OCc2nnc(-c3ccc(Cl)cc3)o2)cc1,inactive
COC(=O)C1CCN(S(=O)(=O)c2cc3c4c(c2)C(C)C(=O)N4CCC3)CC1 (stereo not given),inactive
O=[N+]([O-])c1ccccc1OCCCn1cnc2ccccc21,inactive

Continued.

Structure (SMILES)	Potency
N#Cc1cc(Oc2cccc3cccnc23)c(-n2nnc3ccccc32)cc1C#N	inconclusive: 11.6 µM [inhibitor, partial curve, poor fit]
COc1cc(Nc2ncc3c(C)nc(-c4cccc(C(F)(F)F)c4)n3n2)cc(OC)c1OC	active: 9.96 µM
COCC(=O)Nc1ccc(C)c(Cl)c1	inactive
CCn1c2ccccc2c2cc(C3C(C#N)=C(N)Oc4n[nH]c(COC)c43)ccc21 (stereo not given)	inconclusive: 14.6 µM [inhibitor, partial curve, poor fit]
O=C(Cn1nc(-c2ccccc2)c2ccccc2c1=O)NCCN1CCOCC1	inconclusive: 1.41 µM [inhibitor, partial curve, poor fit]
Cc1ccc(N/N=C(\C#N)C(=N)N2CCCCCC2)cc1	inconclusive: 10 µM [inhibitor, single point]
Cc1ccc(Cl)cc1N1CCN(C(=O)c2cn(C3CCCCC3)c(=O)c3c2c2ccccc2n3C)CC1	inconclusive: 6.31 µM [inhibitor, full curve, poor fit]
Cc1nnc(N/N=C/c2cccc(OCc3ccc(Cl)c(Cl)c3)c2)n1N	inconclusive: 10 µM [inhibitor, partial curve, poor fit]
CCOc1ccc(-n2c(C)cc(C(=O)CCl)c2C)cc1	active: 10 µM
CCCc1nc2ccccc2c(C(=O)OCC(=O)N2CCc3ccccc32)c1CC	inconclusive: 35.5 µM [inhibitor, single point]
Nn1c(Cc2cccc3ccccc23)nnc1SCc1c(Cl)cccc1Cl	inconclusive: 29.1 µM [inhibitor, single point]
COc1ccc(OC)c(C(=O)c2ccc(C(=O)c3cc(OC)ccc3OC)cc2)c1	inconclusive: 32.6 µM [inhibitor, partial curve, poor fit]
Cc1cc(C(=O)N/N=C/c2cc(Br)ccc2OC(=O)c2ccccc2)n[nH]1	inconclusive: 12.6 µM [inhibitor, partial curve, poor fit]
COc1ccc(/C=N/n2c(-c3cccs3)n[nH]c2=S)cc1	inconclusive: 2.24 µM [inhibitor, partial curve, poor fit]
O=C1CC2(CCCC2)CC(=O)N1c1ccccc1	inactive
O=C1NC(=O)C(Nc2ccc(Cl)c(Cl)c2)C(=O)N1	inactive
Cc1cc(O)cc2c1C(c1ccc(F)cc1)CC1(CC(C)(C)NC(=S)N1)O2 (stereo not given)	inconclusive: 3.16 µM [inhibitor, partial curve, poor fit]
O=C(O)/C=C/C(=O)c1ccc(O)cc1	inactive
CC(C)=CCN1CCN(Cc2cccn2-c2ccccn2)CC1CCO (stereo not given)	inactive
COc1ccc(C(=O)NCCCCCCNC(=O)c2ccc(OC)cc2)cc1	inconclusive: 7.94 µM [activator, partial curve, poor fit]
Cc1cccc(N2Cc3ccc(Br)cc3C2)c1	inconclusive: 1.26 µM [activator, partial curve, poor fit]
Nc1nn(-c2ccccc2)c(N)c1N=Nc1ccccc1F	inconclusive: 11.6 µM [inhibitor, partial curve, poor fit]

From PubChem BioAssay AID540256 (National Center for Advancing Translational Sciences (NCATS), 2011)
